Construct, isoform or probe ends are uncertain for at least one entry. For part of these data: At least one verdict was read from the data and is not stated in words by the source. For part of these data: Tags and fusion partners may be left off the protein sequences shown.
Key:
Experiment in all cases: EMSA
[1] = target: T1, CtNAT10 WT (Chaetomium thermophilum) (UniProt G0S273); details: 0.1 mM acetyl-CoA, 50 mM Hepes-KOH pH 7.6, 90 mM NaCl (Fig 1B) or 75 mM NaCl + 0.2 mg/ml BSA (Fig S4A), 12 mM KCl, 10 mM MgCl2, 1 mM DTT, recombinant protein, residues 1-1073, protein details: N-terminal 6xHis
T1 sequence (looked up): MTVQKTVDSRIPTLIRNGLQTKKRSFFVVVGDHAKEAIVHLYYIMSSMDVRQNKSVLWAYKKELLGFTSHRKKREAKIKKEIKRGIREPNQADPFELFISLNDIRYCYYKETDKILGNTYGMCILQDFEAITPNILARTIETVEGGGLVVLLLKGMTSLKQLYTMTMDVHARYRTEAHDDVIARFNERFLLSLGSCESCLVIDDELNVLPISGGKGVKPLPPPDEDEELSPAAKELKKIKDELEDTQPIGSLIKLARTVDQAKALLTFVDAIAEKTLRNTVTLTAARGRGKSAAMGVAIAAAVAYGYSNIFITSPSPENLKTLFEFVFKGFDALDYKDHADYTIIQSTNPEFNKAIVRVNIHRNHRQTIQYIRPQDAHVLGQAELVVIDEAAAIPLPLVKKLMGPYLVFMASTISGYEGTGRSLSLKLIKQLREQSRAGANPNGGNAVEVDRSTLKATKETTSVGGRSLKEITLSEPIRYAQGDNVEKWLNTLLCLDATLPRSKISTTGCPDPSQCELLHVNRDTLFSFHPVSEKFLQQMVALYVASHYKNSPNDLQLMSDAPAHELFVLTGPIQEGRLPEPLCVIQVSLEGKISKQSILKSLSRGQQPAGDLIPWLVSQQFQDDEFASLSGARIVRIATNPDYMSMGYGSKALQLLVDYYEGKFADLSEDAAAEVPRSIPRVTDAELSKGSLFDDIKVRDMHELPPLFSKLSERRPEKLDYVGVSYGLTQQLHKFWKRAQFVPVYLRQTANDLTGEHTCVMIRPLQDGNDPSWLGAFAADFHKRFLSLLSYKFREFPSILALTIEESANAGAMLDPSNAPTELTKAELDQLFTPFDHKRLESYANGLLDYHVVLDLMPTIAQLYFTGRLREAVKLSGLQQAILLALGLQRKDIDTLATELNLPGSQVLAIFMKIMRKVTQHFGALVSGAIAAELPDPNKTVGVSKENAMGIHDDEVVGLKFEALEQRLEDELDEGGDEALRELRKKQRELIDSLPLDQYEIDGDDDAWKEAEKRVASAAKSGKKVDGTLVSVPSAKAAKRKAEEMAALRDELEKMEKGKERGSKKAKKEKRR

[2] = tested on: CtNAT10 R637A + CtTHUMPD1; details: tRNA pre-incubated with 0.75 uM THUMPD1, no difference from WT; 50 mM Hepes-KOH pH 7.6, 90 mM NaCl (Fig 1B) or 75 mM NaCl + 0.2 mg/ml BSA (Fig S4A), 12 mM KCl, 10 mM MgCl2, 1 mM DTT, 0.5 mM ATP, 0.1 mM acetyl-CoA; recombinant protein; protein details: N-terminal 6xHis,GST tag removed by TEV
[3] = tested on: CtNAT10 K427A + CtTHUMPD1; details: tRNA pre-incubated with 0.75 uM THUMPD1, no difference from WT; 50 mM Hepes-KOH pH 7.6, 90 mM NaCl (Fig 1B) or 75 mM NaCl + 0.2 mg/ml BSA (Fig S4A), 12 mM KCl, 10 mM MgCl2, 1 mM DTT, 0.5 mM ATP, 0.1 mM acetyl-CoA; recombinant protein; protein details: N-terminal 6xHis,GST tag removed by TEV
[4] = tested on: CtNAT10 WT + CtTHUMPD1; details: 50 mM Hepes-KOH pH 7.6, 90 mM NaCl (Fig 1B) or 75 mM NaCl + 0.2 mg/ml BSA (Fig S4A), 12 mM KCl, 10 mM MgCl2, 1 mM DTT, 0.5 mM ATP, 0.1 mM acetyl-CoA, recombinant protein, protein details: N-terminal 6xHis,GST tag removed by TEV
[5] = tRNA pre-incubated with 0.75 uM THUMPD1
[6] = NAT10 and THUMPD1 pre-assembled 1:1

Measured: binding result

GAGGAAGUAAAAGUCGUAACAAGGUCUCCGUAGGUGAACCUGCGGAGGGAUCAU [ct-rRNA h45]
binds: [1]; 0.5 mM ATP

GGGCGUGUAGCUCAGUUGGUAGAGCGUUCGCUUAGCAUGCGAGAGGUCCUGGGUUCGAUUCCCAGCCCGUCCA [CttRNAAla (IVT)]
binds: [2] | [3] | [4]; NAT10 and THUMPD1 pre-assembled 1:1, affinity similar to cognate | [4]; [5]

GGCAAGAUGGCCGAGCGGUCCAAGGCGCCAGGUUCAGGUCCUGGUCUCCGCAAGGGGGCGUGAGUUCGAAUCUCACUCUUGUCA [CttRNALeu (IVT)]
binds: [1]; no THUMPD1, 0.5 mM ATP | [2] | [3] | [4]; [6] | [4]; [5]

GACAACUUGGCCGAGUGGUUAAGGCGACAGACUUGAAAUCUGUUGGGUUCGCCCUCACAGGUUCGAAUCCUGUAGUUGUCG [CttRNASer (IVT)]
binds: [1]; no THUMPD1, 0.5 mM ATP | [2] | [3] | [4]; [6] | [4]; [5]
